# According to PubChem BioAssay (EPA / NIEHS):
# Values joined by “and” are separate entries in the source; they are usually repeats but may differ in a detail not shown here. Identical values can stand only once. Inconclusive means that the source gave no clear call. A potency beside an inconclusive call is a rough fit, not a confirmed value.
# Assay: TOX21_p53_BLA_p3_viability: Viability Assessment in the Tox21 HCT-116 p53 Agonism Beta-lactamase Assay, Phase 3 (AID 2283593); active = hit-call score of the fitted dose curve at least 0.9, where 1 is the maximum; inconclusive = response in the unintended direction; inactive = score below 0.9;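 note: cells exposed to compound for 16 h before reading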
# Method in brief: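 HCT116 cells, 4000/well, dosed 5 h after plating by pin transfer (217-fold dilution from DMSO stock) and incubated 16 h at 37C, 5% CO2. Viability read as ATP luminescence with CellTiter-Glo after 30 min at room temperature.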
row,Structure (SMILES),AC50
1,CNCCCN1c2ccccc2CCc2ccccc21,inconclusive: 10.3 µM
2,NC(=O)Oc1ccc(Cc2ccccc2)cc1,inconclusive: 23 µM
3,CO[C@@]1(NC(=O)CSC[C@@H](N)C(=O)O)C(=O)N2C(C(=O)O)=C(CSc3nnnn3C)CS[C@@H]21,inconclusive: 23 µM
4,Cc1cnc(C(=O)O)c[n+]1[O-],inconclusive: 145 nM and inconclusive: 23 µM
5,O=C1NC2CCCCN2C12CCN(CCCN1c3ccccc3CCc3ccc(Cl)cc31)CC2 (configuration not stated),inconclusive: 5.69 µM
6,ClC/C=C\CCl,inconclusive: 47.7 µM
7,CC[C@]12CCCN3CCc4c(n(c5ccccc45)C(=O)C1)[C@@H]32,inconclusive: 0.41 µM
8,CN1[C@@H]2CC[C@H]1CC(OC(=O)c1c[nH]c3ccccc13)C2 (some centres not stated),inconclusive: 1.45 µM
9,CC1(C)[C@@H](O[C@H]2O[C@H](C(=O)O)[C@@H](O)[C@H](O)[C@H]2O[C@@H]2O[C@H](C(=O)O)[C@@H](O)[C@H](O)[C@H]2O)CC[C@]2(C)[C@H]3C(=O)C=C4[C@@H]5C[C@@](C)(C(=O)O)CC[C@]5(C)CC[C@@]4(C)[C@]3(C)CC[C@@H]12,inconclusive: 36.1 µM
10,CC(C)=CCC/C(C)=C/CC/C(C)=C/CC/C=C(\C)CC/C=C(\C)CCC=C(C)C,inconclusive: 34.3 µM
11,OC(CCCN1CCCCC1)(c1ccccc1)c1ccccc1,inconclusive: 23 µM
12,CN[C@H]1CCc2cc(OC)c(OC)c(OC)c2-c2ccc(OC)c(=O)cc21,inconclusive: 0.192 µM
